PubChem BioAssay AID1224827, NIAID – 2016
Assay: 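Identify regulators of the macrophage TNF-alpha response to bacterial LPS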 (follow-up of hits). Cells: RAW264.7 G9 mouse macrophage reporter clone. Reagents: single siRNA against mouse genes, 100 nM siRNA. Time to read-out: siRNA for 2 days, then LPS about 16 h. Treatment: bacterial lipopolysaccharide (LPS), 10 ng/ml, cells fixed after overnight (about 16 h) stimulation. Detection: 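Imaged nuclear TNF reporter intensity, background removed, scaled per plate and to non-targeting control wells, as z-scores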. Direction: TNF reporter z-score, mean: higher = stronger Tnf promoter reporter signal. Active means: 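Active siRNA: replicate-mean z-score of 2 or more, or -2 or less; no calls for control wells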.
The deposit covers about 3,800 reagents; this is an unselected part. Of all reagents, about 2,200 (57%) got an active call. 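Active means a strong reporter change in either direction; calls are per siRNA, not per gene; qiagen siRNAs gave weaker effects.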 Reagents against one gene are numbered here. Not all columns of the deposit are shown. No sequences are given here.

TNF reporter z-score, mean, by target gene and reagent
Ulk4 (GeneID 209012): #1 -2.26 active; #2 -3.41 active; #3 -5.04 active; #4 2.17 active; #5 1.17 inactive; #6 -0.916 inactive
Or10v5 (GeneID 258938): #1 2.72 active; #2 -3.38 active; #3 -4.81 active; #4 3.27 active; #5 0.642 inactive; #6 -0.513 inactive
Sugp2 (GeneID 234373): #1 -3.07 active; #2 -3.08 active; #3 -3.33 active; #4 6.5 active; #5 5.15 active; #6 -2.58 active
S1pr5 (GeneID 94226): #1 1.8 inactive; #2 -1.24 inactive; #3 -5.74 active; #4 4.4 active; #5 1.14 inactive; #6 0.489 inactive
Or4c112 (GeneID 258903): #1 -2.1 active; #2 -3.32 active; #3 -3.99 active; #4 0.419 inactive; #5 -0.187 inactive; #6 -3.28 active
Or4f7 (GeneID 258397): #1 -0.73 inactive; #2 -0.969 inactive; #3 -4.97 active; #4 3.11 active; #5 2.73 active; #6 -2.93 active
Tgs1 (GeneID 116940): #1 -2.5 active; #2 -3.77 active; #3 -5.78 active; #4 6.07 active; #5 2.55 active; #6 -2.99 active
Alyref (GeneID 21681): #1 -1.35 inactive; #2 -3.45 active; #3 -4.16 active; #4 1.24 inactive; #5 0.199 inactive; #6 -2.36 active
Phax (GeneID 56698): #1 0.447 inactive; #2 -2.14 active; #3 -4.25 active; #4 2.61 active; #5 1.72 inactive; #6 1.06 inactive
Hopx (GeneID 74318): #1 -3.39 active; #2 -3.68 active; #3 -3.84 active; #4 3.84 active; #5 1.36 inactive; #6 -2.43 active
